Measured values: PMC4492822 (EMBO Molecular Medicine, 2015)
These are yes or no findings as the source states them, for the method shown. Binding seen in cells or lysates may run through a third protein. Some results given as binding are weak or reduced against the parent protein; the word gives no strength.

Amino acid sequences for entries named in this document (tags omitted).
UniProt P35222: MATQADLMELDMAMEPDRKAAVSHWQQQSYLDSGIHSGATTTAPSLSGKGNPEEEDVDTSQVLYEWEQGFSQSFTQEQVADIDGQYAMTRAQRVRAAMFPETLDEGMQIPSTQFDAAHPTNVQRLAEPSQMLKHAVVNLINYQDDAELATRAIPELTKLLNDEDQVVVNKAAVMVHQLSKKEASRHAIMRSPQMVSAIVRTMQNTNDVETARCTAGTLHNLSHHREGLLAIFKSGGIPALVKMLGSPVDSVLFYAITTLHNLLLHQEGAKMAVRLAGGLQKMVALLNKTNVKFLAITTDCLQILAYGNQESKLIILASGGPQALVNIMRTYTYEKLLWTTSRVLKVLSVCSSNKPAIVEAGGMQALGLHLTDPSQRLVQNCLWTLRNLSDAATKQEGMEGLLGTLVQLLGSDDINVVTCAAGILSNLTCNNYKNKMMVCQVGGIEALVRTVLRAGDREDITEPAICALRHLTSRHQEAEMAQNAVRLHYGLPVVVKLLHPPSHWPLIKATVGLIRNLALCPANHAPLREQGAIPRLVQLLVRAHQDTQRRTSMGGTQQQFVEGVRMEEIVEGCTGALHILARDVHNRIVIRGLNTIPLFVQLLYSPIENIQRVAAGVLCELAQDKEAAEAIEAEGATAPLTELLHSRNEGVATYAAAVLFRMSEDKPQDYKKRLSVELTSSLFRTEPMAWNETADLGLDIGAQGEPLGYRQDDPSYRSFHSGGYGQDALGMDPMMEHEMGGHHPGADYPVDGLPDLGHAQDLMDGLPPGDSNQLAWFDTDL
UniProt O00571: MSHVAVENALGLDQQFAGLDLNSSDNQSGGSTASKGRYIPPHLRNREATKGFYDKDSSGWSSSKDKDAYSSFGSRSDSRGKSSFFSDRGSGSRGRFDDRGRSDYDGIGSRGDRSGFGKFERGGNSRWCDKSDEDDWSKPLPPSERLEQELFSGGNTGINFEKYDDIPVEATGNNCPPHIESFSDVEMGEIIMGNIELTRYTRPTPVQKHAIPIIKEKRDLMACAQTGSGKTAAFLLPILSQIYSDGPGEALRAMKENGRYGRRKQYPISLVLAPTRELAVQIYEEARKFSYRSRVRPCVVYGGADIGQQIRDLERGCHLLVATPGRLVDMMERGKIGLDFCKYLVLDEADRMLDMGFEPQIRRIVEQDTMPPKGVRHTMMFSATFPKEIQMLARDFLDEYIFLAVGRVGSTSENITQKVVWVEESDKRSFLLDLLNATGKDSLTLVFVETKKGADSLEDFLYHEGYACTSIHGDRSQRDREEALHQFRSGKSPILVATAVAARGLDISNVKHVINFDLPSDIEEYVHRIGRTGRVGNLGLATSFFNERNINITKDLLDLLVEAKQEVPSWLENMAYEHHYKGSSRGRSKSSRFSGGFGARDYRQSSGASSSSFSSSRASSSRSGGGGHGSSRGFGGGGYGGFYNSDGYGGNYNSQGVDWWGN

Experiments:
[1] = biological target: β-catenin (human (endogenous in A549 and H1299)) (UniProt P35222); assay: co-IP; antibodies (against DDX3, β-catenin or H3K4Me3 as control) cross-linked to protein A/G magnetic beads; A549 and H1299 cell lysates incubated overnight at 4°C; eluted at pH 2.0; immunoblot
[2] = biological target: DDX3 (human (endogenous in A549 and H1299)) (UniProt O00571); assay: as above

Row | binding [1] | binding [2] | Substance
1 | binds | – | DDX3 (from UniProt O00571 1-662)
2 | – | binds | β-catenin (from UniProt P35222 1-781)
